Measured values published in patent US10822723.
No constants are given. Whether binding was seen depends on the method and setting. Some results given as binding are weak or reduced against the parent protein; the word gives no strength.

By UniProt entry, the sequences of proteins in these tests, tags left out. Residues count along the entry.
UniProt O96013, residues 286-591: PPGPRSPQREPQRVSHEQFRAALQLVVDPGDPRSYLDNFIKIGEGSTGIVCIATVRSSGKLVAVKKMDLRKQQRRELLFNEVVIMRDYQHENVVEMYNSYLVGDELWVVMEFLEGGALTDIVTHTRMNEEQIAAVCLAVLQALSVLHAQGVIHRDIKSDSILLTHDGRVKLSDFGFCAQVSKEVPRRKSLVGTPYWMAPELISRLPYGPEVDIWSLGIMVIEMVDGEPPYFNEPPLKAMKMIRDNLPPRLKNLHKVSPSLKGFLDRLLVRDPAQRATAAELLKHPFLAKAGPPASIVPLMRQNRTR

Target: 6His-PAK4cat, recombinant catalytic domain of PAK4 (286-591) (human) (UniProt O96013)
Assay: in vitro co-crystallisation, X-ray structure

binding: binds
B1: iBox 23mer synthetic peptide … (peptide)
peptide: AEDWTAALLNRGRSRQPLVLGDW
